Test results published in PubChem BioAssay AID1347076 (National Center for Advancing Translational Sciences (NCATS), 2019).
Screen size: about 400,000 compounds; about 13,000 (3.2%) were called active. Inconclusive means that the source gave no clear call. Such entries were picked first, then a sample of the others. Calls come from the whole dose curve; as a rule, active = well fitted cell-killing curve with a large enough effect; inconclusive = small, poorly fitted or top-dose-only effect, or effect the other way; inactive = flat fitted curve, though single readings scatter. Where the call is inconclusive, the potency comes from a doubtful curve fit. Where a SMILES comes first, the peptide text is derived from it. The star is where a group is joined. Cbz = O=C(OCc1ccccc1)*; CH2Cl = ClC*

Test: qHTS assay for MDR1-selective chemotherapeutics: Primary screen using the drug-selected MDR subline cells KB-V1; note: nearly all actives have a fitted effect of over 60% in size
Conditions: KB-V1 MDR cells viability, CellTiter-Glo, 72 h; activity change, negative = cytotoxicity: at 46.1 µM (top of the series)
Source text: A prime difficulty in effectively treating cancer is the development of cellular resistance to multiple structurally unrelated anticancer drugs, a phenomenon known as multidrug resistance (MDR). […] Numerous strategies to overcome P-gp-mediated MDR have been explored, including the design of drugs that evade recognition and efflux, and development of inhibitors to block efflux and restore drug accumulation. […] An alternative approach is to exploit resistance by identifying drugs that target MDR cells over the non-resistant parental cells from which they were selected. […] The development of MDR1-selective agents represents a new strategy for resolving multidrug resistance, as it remains a long-standing clinical challenge for cancer chemotherapy.
Our goal is to identify compounds that selectively kill P-gp-expressing MDR cells. We will identify MDR1-selective compounds by comparing toxicity of compounds in the screening library against parental, drug-naive (KB-3-1) adenocarcinoma cells as well as their drug-selected MDR sub-line (KB-V1). The differential toxicity of compounds against these two cell lines will be used to identify MDR1-selective compounds, whose cytotoxicity is potentiated, rather than diminished, by P-gp expression. This assay will be utilized to conduct a quantitative high-throughput screen (qHTS) in collaboration with the NIH Chemical Genomics Center to identify selective agents, and probe hits arising from the screen will be validated using secondary assays and characterized through a well-established follow-up research program. This screen was run against the entire NCGC library collection of about 400,000 compounds.
NIH Molecular Libraries Probe Production Network [MLPCN]
NIH Chemical Genomics Center [NCGC]
PI: Michael Gottesman, National Cancer Institute, NIH
Briefly, 5 microL of media containing either KB-V1 cells (columns 1-2, 4-48) are dispensed into Greiner white, treated solid-bottom 1536-well assay plates (media-only control is added to column 3). Compounds are then transferred via Kalypsys pin tool equipped with 1536-pin array (10 nL slotted pins, V&P Scientific, San Diego, CA). Following addition of compound, the plates are incubated at 37 degrees C for 72 hours. CellTiter-Glo (2.5 µL/well) is then added, and the plates are read in a ViewLux reader (Perkin-Elmer, clear luminescence filter, 1 second exposure, 1x binning) following a 10 minute incubation. All cells are dispensed in DMEM phenol-red free media containing 10% FBS.
Library plates were screened starting from the lowest and proceeding to the highest concentration. Vehicle-only plates, with DMSO being pin-transferred to columns 5-48, will be inserted uniformly at the beginning and the end of each library in order to monitor and record any shifts in the background, which can be affected by reagent dispensers or loss in enzyme activity over time. Screening data will be corrected, normalized, and concentration-effect relationships will be derived by using publicly-available NCGC, NCATS curve fitting algorithms (http://ncgc.nih.gov/pub/openhts).
% is set by controls: 0 for no effect and ±100 for the full control effect; potency is the fitted concentration of half-maximal effect.

Structure (SMILES)	Potency	activity change, negative = cytotoxicity
CC1CCCCN1C(=O)c1c(Cl)cnn1C (centres undefined)	inconclusive: 29.1 µM [rising, single point]	
CC1(C(=O)Nc2ccc3c(c2)OCCO3)CCN1C(=O)Cc1cc(F)ccc1F (centres undefined)	inconclusive: 18.4 µM [cytotoxic, single point]	
Cc1[nH][nH]c(=O)c1C(c1ccc(-c2ccc(Cl)c(C(=O)O)c2)o1)c1c(C)[nH][nH]c1=O		inactive: 11%
CC(C)(CO)NCc1cc(Br)ccc1OCc1ccccc1		inactive: 0%
Cc1ccc(NC(=O)CCS(=O)(=O)c2cc(Br)cc3c2N(C(=O)C2CC2)CC3)cc1		inactive: -3.33%
O=C(Nc1ccc(N2CCN(C(=O)c3ccccc3)CC2)cc1)c1ccc(Br)o1	inconclusive: 23.1 µM [cytotoxic, partial curve]	
COc1ccccc1CCc1nnc(CCC(=O)NCC[C@@H]2C[C@@H]3C=C[C@H]2C3)o1		inactive: -20.7%
COc1ccc2oc(C(=O)N3CCN(C(=O)c4ccco4)CC3)c(C)c2c1	inconclusive: 8.2 µM [cytotoxic, partial curve, poor fit]	
S=C(NCc1ccco1)N1CCN(C/C=C/c2ccccc2)CC1	inconclusive: 10.3 µM [cytotoxic, partial curve, poor fit]	
O=C(CSc1nc2ccccc2[nH]1)N=Nc1c(O)[nH]c2ccccc12	inconclusive: 25.9 µM [cytotoxic, partial curve, poor fit]	
Cc1ccnc2ccc([N+](=O)[O-])cc12	inconclusive: 18.4 µM [cytotoxic, single point]	
COC(=O)c1ccc(OC(=O)c2ccco2)cc1	inconclusive: 5.17 µM [rising, partial curve]	
O=C(Nc1cccc(-c2ccc(N3CCOCC3)nn2)c1)c1ccc([N+](=O)[O-])cc1	inconclusive: 29.1 µM [cytotoxic, single point]	
CN(Cc1ccon1)C(=O)CCc1nnc(Cc2ccc(-c3ccccc3)cc2)o1	inconclusive: 16.4 µM [cytotoxic, single point]	
COc1ccccc1N1CCN(C(=O)C2CCCN(S(=O)(=O)c3ccc(C)cc3)C2)CC1 (centres undefined)	inconclusive: 10.3 µM [rising, single point]	
CCOc1ccccc1NS(=O)(=O)c1ccc2c(c1)NC(=O)CCS2	inconclusive: 18.4 µM [rising, single point]	
c1ccc(C2CC(c3cccs3)=NN2c2ccccc2)cc1 (centres undefined)	inconclusive: 29.1 µM [cytotoxic, single point]	
O=C(CN(c1ccc(Cl)c(Cl)c1)S(=O)(=O)c1ccccc1)N1CCc2ccccc2C1	inconclusive: 25.9 µM [cytotoxic, partial curve, poor fit]	
CCCCC(CC)CN=C(N)NC(N)=NCCCCCCN=C(N)NC(N)=NCC(CC)CCCC (centres undefined)	inconclusive: 18.4 µM [cytotoxic, single point]	
O=C(/C=C/c1cccs1)Nc1ccc([N+](=O)[O-])cc1	inconclusive: 23.1 µM [cytotoxic, single point]	
Cc1csc(NC(=O)C2COc3ccccc3O2)n1 (centres undefined)		inactive: 0.517%
CC(=O)N1CC2(CC(c3ccccc3C(F)(F)F)=NO2)CN1c1ccc(Cl)cc1 (centres undefined)	inconclusive: 1.3 µM [cytotoxic, full curve]	
CCOC(=O)CSc1nc2ccc(NC(=O)COc3ccccc3C)cc2s1		inactive: 19.7%

Structure (SMILES)	Potency	activity change, negative = cytotoxicity
CCOc1cnn(-c2ccccc2)c(=O)c1Cl		inactive: -0.157%
Cn1nc(C(=O)Nc2nc(-c3ccccn3)cs2)c2ccccc2c1=O	active: 1.3 µM	
CC1(C)Cc2c(cnn2-c2ccc(F)cc2)C(NC(=O)CCCN2CCCCC2=O)C1 (centres undefined)	inconclusive: 18.4 µM [cytotoxic, single point]	
CC(C)(C)C(=O)N1CCN(c2ccc([N+](=O)[O-])cc2Cl)CC1	inconclusive: 13 µM [cytotoxic, partial curve, poor fit]	
Cc1ccc(C(=O)CNc2ccc(C)cc2C)cc1		inactive: -6.4%
S=C(NCCc1ccc(Cl)cc1)NC1CC1	inconclusive: 29.1 µM [cytotoxic, single point]	
Cc1ccccc1C(=O)Nc1ccnn1C1CCN(C(C)Cc2ccccc2F)CC1 (centres undefined)		inactive: 18.8%
COc1ccc(C(=O)N2CCN(c3nc4ccccc4o3)CC2)cc1OC	inconclusive: 29.1 µM [cytotoxic, single point]	
CCOC(=O)c1ccc(NC(=S)NCCCN2CCCC2=O)cc1	inconclusive: 29.1 µM [cytotoxic, single point]	
O=C(/C=C/c1ccc(Cl)cc1)NCc1ccncc1	inconclusive: 16.4 µM [cytotoxic, single point]	
C[C@H]1CNC(=O)c2c(C(=O)Nc3ccc(CNC(=O)OC(C)(C)C)cc3)ncn21	inconclusive: 20.6 µM [cytotoxic, single point]	
COc1ccc(C2(CNC(=O)CCC(=O)O)CCCC2)cc1	inconclusive: 25.9 µM [rising, partial curve]	
CCN1CCN(C(=O)c2cn(CCOC)c(=O)c3c2c2ccccc2n3C)CC1	inconclusive: 8.2 µM [cytotoxic, partial curve]	
CCOc1nc2ccccc2cc1/C=C/C(=O)O	inconclusive: 2.31 µM [rising, partial curve, poor fit]	
CC(C)COC(=O)N(C)C[C@@H]1OCc2cnnn2CCCC(=O)N([C@@H](C)CO)C[C@H]1C	inconclusive: 23.1 µM [rising, single point]	
O=C(NCc1ccccc1)C12CN(Cc3ccccc3)CC1C(c1cccc([N+](=O)[O-])c1)=NO2 (centres undefined)	inconclusive: 0.731 µM [cytotoxic, full curve, poor fit]	
COc1cccc(N/C(SC)=C(/C#N)C(=O)NCc2cccs2)c1	inconclusive: 16.4 µM [cytotoxic, partial curve]	
O=P(CCc1ccccc1)(c1ccccc1)c1ccccc1	inconclusive: 1.46 µM [cytotoxic, full curve]	
Cc1cccc(CSc2ccc3nnc(-c4ccccn4)n3n2)c1	inconclusive: 8.2 µM [cytotoxic, partial curve]	
Cc1ccccc1NCC(=O)N/N=C/C(Br)=C/c1ccccc1	inconclusive: 20.6 µM [cytotoxic, single point]	
CCO[C@H]1OC(C(=O)N2CCCCCCC2)=C[C@@H](c2coc3ccccc3c2=O)[C@@H]1CCCO		inactive: -8.62%
COc1nc(N(C)C)nc(N2CC(=O)N(CCNS(=O)(=O)c3ccc(C)cc3)C2=N)n1	inconclusive: 29.1 µM [rising, single point]	
CCc1nnc(NC(=O)C2CCN(c3nccc(C)n3)CC2)s1	active: 16.4 µM	

Structure (SMILES)	Potency	activity change, negative = cytotoxicity
COc1ccc(C(=O)N/N=C(\C)c2ccccn2)cc1OC	active: 2.31 µM	
CC(C)c1cc(C(C)C)c(S(=O)(=O)N2CCNCC2)c(C(C)C)c1	inconclusive: 0.082 µM [rising, full curve]	
COc1ccc2cc(CO)c3cc(OC)c(OC)cc3c2c1	inconclusive: 29.1 µM [cytotoxic, single point]	
C[C@@H]1c2ccccc2N2C[C@H](Cc3ccc(C(=O)c4ccccc4)cc3)C[C@@H]12	inconclusive: 25.9 µM [cytotoxic, partial curve, poor fit]	
CC(C)CC(NC(=O)OCc1ccccc1)C(=O)NC(Cc1ccccc1)C(=O)CCl (stereo not drawn) (Cbz-Leu-Phe-CH2Cl; configuration not given here)	inconclusive: 29.1 µM [cytotoxic, single point]	
COc1cc(OC)cc(-c2sc3ccc(OC)cc3c2C#CC2(N)CCCCC2)c1	inconclusive: 29.1 µM [cytotoxic, single point]	
Cc1ccc(NC(=O)c2ncn(CCCNCCCN(C)C)n2)cc1C		inactive: -4.32%
CN(C)/C=C/C(=O)c1ccc(Cl)cc1Cl	inconclusive: 18.4 µM [rising, single point]	
Fc1ccc(C(c2nnnn2C2CCCC2)N2CCN(Cc3ccccc3)CC2)cc1 (centres undefined)	active: 3.66 µM	
C=C(C)Cn1c(SCC(=O)N/N=C/c2ccccc2)nc2ccccc2c1=O	inconclusive: 18.4 µM [cytotoxic, single point]	
Cc1ccccc1NS(=O)(=O)c1cc(C(=O)NCc2ccco2)ccc1C	inconclusive: 23.1 µM [cytotoxic, partial curve]	
CC(C)(C)c1cc(CCC(=O)NCc2ccncc2)cc(C(C)(C)C)c1O	inconclusive: 5.17 µM [cytotoxic, partial curve]	
COc1cc(N/N=C(\C)c2ccc(O)c(C)c2)nc(-c2ccccc2)n1		inactive: -3.58%
O=[N+]([O-])c1ccc(NCc2ccc3c(c2)OCO3)cc1		inactive: -11%
COc1ccc(-c2cc3nc(NCCNC(C)=O)n(C)c(=O)c3s2)c(C)c1		inactive: 2.95%
Cn1c(=O)c2c(nc(N3CCOCC3)n2C/C=C/c2ccccc2)n(C)c1=O	inconclusive: 23.1 µM [cytotoxic, single point]	
COc1ccc2c(c1)OC[C@H]1[C@H]2N2C(=O)c3cc(C)ccc3NC(=O)[C@@]2(C)[C@H]1c1ccccc1		inactive: -15.8%
CCOC(=O)CC(=O)CSc1nc(CC)c(C)cc1C#N		inactive: 2.96%
Cc1ccc(-n2c(SCC(N)=O)nc3c(c2=O)C2(CCCC2)Cc2ccccc2-3)cc1	active: 10.3 µM	
Cc1cc(NC(=O)CSc2ccccc2)no1		inactive: -3.48%
CC1(C)CC(=O)C(N=Nc2ccc(F)cc2)=C(O)C1		inactive: 4.14%
Cc1nc(=S)c2ccccc2[nH]1		inactive: -3.63%
O=[N+]([O-])c1ccccc1CN1CCN(S(=O)(=O)Cc2ccccc2)CC1	inconclusive: 13 µM [cytotoxic, single point]	

Nothing new here: entries from further up.
Structure (SMILES)	Potency	activity change, negative = cytotoxicity
CC(C)COC(=O)N(C)C[C@@H]1OCc2cnnn2CCCC(=O)N([C@@H](C)CO)C[C@H]1C	inconclusive: 23.1 µM [rising, single point]	
O=C(NCc1ccccc1)C12CN(Cc3ccccc3)CC1C(c1cccc([N+](=O)[O-])c1)=NO2 (centres undefined)	inconclusive: 0.731 µM [cytotoxic, full curve, poor fit]	
COc1cccc(N/C(SC)=C(/C#N)C(=O)NCc2cccs2)c1	inconclusive: 16.4 µM [cytotoxic, partial curve]	
O=P(CCc1ccccc1)(c1ccccc1)c1ccccc1	inconclusive: 1.46 µM [cytotoxic, full curve]	
